Measured values published in the supplement of paper PMC6411743.
± gives the standard deviation of the averaged measurements. The entries are a selection whose mix differs from that of the whole data set.

Chains of the proteins cited; added tags and fusions are not shown. Lines headed by an entry give the natural chain unless they say otherwise; changes in a name come on top.
UniProt Q96DC7: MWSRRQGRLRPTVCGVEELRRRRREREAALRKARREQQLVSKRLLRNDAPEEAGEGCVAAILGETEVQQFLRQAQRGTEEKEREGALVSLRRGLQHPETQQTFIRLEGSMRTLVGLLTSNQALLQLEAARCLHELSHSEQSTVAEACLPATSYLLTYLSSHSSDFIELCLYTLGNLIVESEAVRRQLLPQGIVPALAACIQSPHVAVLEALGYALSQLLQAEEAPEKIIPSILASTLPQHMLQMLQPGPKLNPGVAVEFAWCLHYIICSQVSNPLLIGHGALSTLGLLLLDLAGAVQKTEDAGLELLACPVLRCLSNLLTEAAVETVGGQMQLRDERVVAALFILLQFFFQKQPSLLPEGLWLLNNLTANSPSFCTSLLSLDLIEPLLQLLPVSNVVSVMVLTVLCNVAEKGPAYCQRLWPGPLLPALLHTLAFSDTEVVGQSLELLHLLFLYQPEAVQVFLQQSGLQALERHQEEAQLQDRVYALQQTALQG
UniProt Q96GN5: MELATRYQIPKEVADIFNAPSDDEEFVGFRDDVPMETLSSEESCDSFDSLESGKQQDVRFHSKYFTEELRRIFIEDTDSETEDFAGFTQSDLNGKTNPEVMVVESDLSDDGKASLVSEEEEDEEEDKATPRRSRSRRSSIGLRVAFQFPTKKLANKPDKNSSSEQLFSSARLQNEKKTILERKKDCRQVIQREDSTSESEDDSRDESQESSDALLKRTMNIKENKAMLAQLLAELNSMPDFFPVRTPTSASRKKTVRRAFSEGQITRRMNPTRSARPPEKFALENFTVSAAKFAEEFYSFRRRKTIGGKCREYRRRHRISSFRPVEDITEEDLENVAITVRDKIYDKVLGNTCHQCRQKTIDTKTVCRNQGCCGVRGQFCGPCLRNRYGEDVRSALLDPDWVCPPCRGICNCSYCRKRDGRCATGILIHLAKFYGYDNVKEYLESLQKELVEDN
UniProt Q969E8: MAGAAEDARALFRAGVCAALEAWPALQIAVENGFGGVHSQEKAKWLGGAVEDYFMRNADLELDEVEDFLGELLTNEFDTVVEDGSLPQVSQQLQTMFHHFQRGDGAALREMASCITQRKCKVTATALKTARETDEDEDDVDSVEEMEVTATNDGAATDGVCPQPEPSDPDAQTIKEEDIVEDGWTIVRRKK
UniProt Q96FA3: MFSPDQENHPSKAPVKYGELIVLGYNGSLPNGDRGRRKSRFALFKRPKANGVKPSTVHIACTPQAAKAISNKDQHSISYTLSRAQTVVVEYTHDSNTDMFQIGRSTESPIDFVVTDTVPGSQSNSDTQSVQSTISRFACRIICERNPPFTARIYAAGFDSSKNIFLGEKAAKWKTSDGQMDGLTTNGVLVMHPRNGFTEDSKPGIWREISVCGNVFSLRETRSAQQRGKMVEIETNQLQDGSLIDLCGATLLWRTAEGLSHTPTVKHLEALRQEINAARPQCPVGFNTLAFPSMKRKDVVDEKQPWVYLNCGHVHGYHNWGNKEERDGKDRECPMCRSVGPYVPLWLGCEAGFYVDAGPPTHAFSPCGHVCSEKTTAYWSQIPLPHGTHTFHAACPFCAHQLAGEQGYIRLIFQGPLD
UniProt Q96L91, whole entry: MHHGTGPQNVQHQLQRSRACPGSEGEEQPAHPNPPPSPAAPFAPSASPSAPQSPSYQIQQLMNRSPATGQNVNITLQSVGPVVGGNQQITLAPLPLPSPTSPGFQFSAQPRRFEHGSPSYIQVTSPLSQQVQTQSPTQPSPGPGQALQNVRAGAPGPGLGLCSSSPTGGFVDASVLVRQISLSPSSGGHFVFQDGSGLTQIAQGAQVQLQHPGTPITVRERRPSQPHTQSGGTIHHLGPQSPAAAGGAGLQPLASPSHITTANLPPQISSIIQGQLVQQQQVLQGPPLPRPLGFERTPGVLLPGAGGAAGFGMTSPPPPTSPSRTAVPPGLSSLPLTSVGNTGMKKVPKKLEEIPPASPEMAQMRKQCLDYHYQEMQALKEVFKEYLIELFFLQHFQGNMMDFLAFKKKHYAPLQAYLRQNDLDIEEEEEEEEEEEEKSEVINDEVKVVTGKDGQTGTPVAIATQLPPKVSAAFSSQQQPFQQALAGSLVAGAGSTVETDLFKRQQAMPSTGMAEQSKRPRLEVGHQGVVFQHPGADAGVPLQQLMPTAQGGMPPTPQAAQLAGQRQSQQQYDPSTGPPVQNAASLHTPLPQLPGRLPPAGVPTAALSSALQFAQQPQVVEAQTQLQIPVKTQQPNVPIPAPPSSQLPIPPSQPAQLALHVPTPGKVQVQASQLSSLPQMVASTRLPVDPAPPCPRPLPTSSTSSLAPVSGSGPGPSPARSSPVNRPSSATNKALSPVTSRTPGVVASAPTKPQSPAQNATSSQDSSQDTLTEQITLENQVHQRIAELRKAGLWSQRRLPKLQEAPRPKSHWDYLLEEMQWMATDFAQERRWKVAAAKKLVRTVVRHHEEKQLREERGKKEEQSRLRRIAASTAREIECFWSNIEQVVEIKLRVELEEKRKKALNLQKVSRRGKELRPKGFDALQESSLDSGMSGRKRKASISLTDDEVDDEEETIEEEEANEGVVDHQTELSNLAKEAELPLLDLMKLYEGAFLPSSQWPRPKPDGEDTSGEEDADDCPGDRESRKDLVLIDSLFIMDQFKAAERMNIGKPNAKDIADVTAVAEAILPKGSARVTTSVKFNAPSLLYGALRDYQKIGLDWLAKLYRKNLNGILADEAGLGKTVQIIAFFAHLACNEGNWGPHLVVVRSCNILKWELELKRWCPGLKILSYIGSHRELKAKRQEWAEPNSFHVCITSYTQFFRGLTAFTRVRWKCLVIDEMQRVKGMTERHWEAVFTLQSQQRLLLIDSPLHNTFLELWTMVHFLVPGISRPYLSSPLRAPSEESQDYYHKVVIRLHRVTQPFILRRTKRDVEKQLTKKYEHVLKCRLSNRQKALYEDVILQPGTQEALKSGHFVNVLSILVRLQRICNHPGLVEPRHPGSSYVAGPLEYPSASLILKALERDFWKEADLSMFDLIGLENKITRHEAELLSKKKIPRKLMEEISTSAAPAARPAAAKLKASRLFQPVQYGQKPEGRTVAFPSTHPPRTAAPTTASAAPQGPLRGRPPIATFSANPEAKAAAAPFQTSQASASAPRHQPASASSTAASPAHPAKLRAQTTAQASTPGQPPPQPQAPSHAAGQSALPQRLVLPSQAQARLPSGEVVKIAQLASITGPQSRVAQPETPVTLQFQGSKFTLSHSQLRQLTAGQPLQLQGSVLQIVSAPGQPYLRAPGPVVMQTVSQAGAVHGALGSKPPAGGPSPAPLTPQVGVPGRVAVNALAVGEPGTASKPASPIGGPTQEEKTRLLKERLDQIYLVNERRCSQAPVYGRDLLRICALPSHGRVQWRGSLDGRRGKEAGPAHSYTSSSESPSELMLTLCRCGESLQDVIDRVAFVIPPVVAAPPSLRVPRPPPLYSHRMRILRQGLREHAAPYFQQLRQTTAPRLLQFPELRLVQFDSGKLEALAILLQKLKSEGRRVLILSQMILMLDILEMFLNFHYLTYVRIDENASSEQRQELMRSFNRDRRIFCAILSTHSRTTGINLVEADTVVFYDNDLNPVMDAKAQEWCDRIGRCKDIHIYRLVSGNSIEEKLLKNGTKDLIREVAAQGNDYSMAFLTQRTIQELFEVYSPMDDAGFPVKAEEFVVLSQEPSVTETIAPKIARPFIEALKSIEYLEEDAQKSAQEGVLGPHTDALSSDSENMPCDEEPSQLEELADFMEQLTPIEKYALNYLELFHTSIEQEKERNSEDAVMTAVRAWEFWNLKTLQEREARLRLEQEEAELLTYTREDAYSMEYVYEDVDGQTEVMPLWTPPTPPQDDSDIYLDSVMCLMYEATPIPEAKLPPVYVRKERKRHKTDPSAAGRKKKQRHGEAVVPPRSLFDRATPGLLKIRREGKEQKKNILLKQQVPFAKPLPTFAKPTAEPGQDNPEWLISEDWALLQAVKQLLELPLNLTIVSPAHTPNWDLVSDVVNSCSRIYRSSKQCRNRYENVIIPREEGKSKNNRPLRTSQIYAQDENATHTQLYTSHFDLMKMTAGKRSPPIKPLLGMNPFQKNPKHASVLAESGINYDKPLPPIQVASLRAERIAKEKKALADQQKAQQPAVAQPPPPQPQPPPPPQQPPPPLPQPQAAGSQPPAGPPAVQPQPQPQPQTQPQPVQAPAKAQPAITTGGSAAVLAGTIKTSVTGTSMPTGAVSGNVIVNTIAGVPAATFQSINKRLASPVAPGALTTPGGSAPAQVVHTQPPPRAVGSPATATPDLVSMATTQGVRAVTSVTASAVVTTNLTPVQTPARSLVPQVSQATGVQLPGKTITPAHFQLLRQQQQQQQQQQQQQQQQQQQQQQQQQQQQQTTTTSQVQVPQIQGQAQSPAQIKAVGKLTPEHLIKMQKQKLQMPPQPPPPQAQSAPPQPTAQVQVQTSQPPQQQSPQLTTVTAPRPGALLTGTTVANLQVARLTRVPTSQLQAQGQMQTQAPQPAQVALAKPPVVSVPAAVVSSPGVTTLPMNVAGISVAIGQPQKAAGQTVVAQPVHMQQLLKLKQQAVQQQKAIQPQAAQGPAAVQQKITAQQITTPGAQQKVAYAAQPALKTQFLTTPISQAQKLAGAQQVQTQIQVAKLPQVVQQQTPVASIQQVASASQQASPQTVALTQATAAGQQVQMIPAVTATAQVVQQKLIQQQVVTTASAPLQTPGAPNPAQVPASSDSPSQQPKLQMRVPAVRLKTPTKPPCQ
UniProt Q96CN5: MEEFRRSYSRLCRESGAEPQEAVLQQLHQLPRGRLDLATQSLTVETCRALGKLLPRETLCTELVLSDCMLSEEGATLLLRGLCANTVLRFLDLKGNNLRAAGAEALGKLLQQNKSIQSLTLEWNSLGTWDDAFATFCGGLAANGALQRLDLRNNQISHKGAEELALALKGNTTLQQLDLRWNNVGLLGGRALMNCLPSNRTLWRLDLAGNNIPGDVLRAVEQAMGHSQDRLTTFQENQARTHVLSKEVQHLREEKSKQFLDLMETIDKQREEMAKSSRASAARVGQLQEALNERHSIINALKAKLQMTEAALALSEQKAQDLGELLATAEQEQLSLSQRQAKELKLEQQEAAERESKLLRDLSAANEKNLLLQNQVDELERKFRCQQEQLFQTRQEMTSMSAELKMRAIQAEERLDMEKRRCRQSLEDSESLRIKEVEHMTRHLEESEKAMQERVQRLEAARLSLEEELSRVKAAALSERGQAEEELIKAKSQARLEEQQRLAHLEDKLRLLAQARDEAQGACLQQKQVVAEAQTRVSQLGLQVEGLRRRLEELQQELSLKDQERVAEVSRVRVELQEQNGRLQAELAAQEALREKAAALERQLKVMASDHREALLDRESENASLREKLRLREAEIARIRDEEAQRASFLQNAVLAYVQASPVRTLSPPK
UniProt Q96GY3: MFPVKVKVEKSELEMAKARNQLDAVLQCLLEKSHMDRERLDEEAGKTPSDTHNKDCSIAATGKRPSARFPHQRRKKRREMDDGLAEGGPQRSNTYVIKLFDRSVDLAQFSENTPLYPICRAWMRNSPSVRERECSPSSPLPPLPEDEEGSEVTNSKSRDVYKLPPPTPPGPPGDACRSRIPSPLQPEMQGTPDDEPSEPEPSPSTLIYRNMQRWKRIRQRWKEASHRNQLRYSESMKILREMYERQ
UniProt Q96DA2: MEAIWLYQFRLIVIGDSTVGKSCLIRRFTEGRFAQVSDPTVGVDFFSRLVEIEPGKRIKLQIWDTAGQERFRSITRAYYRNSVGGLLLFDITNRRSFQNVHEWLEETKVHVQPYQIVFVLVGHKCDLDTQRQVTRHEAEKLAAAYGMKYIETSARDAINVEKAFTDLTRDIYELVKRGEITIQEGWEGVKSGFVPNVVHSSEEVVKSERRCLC
UniProt Q96NC0: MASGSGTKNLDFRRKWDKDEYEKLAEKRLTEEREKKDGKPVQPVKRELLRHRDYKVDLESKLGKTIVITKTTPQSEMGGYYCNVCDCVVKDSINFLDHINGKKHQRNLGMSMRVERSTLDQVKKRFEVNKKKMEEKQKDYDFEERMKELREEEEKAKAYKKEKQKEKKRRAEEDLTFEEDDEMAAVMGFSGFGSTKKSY
UniProt Q96F86: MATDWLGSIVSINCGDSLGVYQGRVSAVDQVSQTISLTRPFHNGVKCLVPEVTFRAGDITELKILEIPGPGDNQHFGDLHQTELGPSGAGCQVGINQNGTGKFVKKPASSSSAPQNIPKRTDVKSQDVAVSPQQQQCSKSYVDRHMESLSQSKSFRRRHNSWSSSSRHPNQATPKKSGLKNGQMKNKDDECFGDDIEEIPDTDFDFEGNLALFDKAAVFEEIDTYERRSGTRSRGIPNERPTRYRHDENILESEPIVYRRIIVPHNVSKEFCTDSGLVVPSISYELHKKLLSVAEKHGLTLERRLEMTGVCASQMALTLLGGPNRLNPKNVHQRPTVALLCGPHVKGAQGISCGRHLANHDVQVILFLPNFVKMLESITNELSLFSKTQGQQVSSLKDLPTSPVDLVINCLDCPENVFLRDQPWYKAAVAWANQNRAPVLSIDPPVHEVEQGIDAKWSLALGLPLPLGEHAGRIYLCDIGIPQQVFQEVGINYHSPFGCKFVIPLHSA

Compound: Nc1ncnc2c1ncn2[C@@H]1O[C@H](COP(=O)(O)OP(=O)(O)NP(=O)(O)O)[C@@H](O)[C@H]1O [adenylyl imidodiphosphate]
Assay: NP40-soluble protein abundance relative to vehicle (solubility fold change) (ratio); higher = more soluble protein in presence of AMP-PNP
Procedure, shortened: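 Data come from three independent experiments in which Dounce-homogenised Jurkat crude lysate was treated at eight concentrations from 0.1 to 10 mM. Treatment ran 10 min at room temperature and then 3 min at 37 °C, after which 0.8% NP40 and benzonase were added for 60 min at 4 °C before ultracentrifugation. The supernatant underwent TMT labelling and LC-MS/MS, and vsn-normalised intensities were expressed as fold change against the detergent-processed vehicle in each replicate.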

Row | Target | NP40-soluble protein abundance (concentration: 1mM) | NP40-soluble protein abundance (concentration: 2mM) | NP40-soluble protein abundance (concentration: 4mM) | NP40-soluble protein abundance (concentration: 6mM) | NP40-soluble protein abundance (concentration: 8mM) | NP40-soluble protein abundance (concentration: 10mM)
1 | UniProt Q96DC7 and related entries | 1 ± 0.03 | 1 ± 0.033 | 0.986 ± 0.02 | 1.02 ± 0.03 | 1.01 ± 0.044 | 0.996 ± 0.029
2 | UniProt Q96GC5 and related entries | 0.973 ± 0.08 | 1 ± 0.04 | 0.955 ± 0.11 | 0.992 ± 0.14 | 1 ± 0.1 | 1.05 ± 0.17
3 | UniProt Q96DA6 and related entries | 0.997 ± 0.036 | 1 ± 0.025 | 1 ± 0.048 | 0.962 ± 0.043 | 0.996 ± 0.066 | 0.957 ± 0.035
4 | UniProt Q96GN5 and related entries | 0.999 ± 0.015 | 1.03 ± 0.054 | 1.03 ± 0.053 | 1.08 ± 0.075 | 1.09 ± 0.086 | 1.11 ± 0.092
5 | ZC3HAV1L (UniProt Q96H79) | 1.02 ± 0.03 | 0.994 ± 0.031 | 1.02 ± 0.077 | 1.07 ± 0.077 | 1.09 ± 0.075 | 1.09 ± 0.03
6 | TSR2 (UniProt Q969E8) | 1.05 ± 0.04 | 1.05 ± 0.059 | 1.04 ± 0.053 | 1.1 ± 0.025 | 1.1 ± 0.038 | 1.08 ± 0.087
7 | UniProt Q96FA3 | 0.9865 ± 0.0024 | 1 ± 0.014 | 0.978 ± 0.029 | 0.984 ± 0.017 | 0.992 ± 0.01 | 1.01 ± 0.049
8 | UniProt Q96L91 and related entries | 1.03 ± 0.036 | 1.09 ± 0.038 | 1.05 ± 0.028 | 1.05 ± 0.061 | 1.03 ± 0.057 | 1.1 ± 0.084
9 | LRRC45 (UniProt Q96CN5) | 0.977 ± 0.065 | 0.919 ± 0.029 | 0.969 ± 0.022 | 0.97 ± 0.015 | 1 ± 0.032 | 0.956 ± 0.03
10 | UniProt Q96BX8 | 0.982 ± 0.026 | 0.942 ± 0.032 | 0.96 ± 0.059 | 0.935 ± 0.013 | 0.969 ± 0.022 | 0.9107 ± 0.0078
11 | UniProt Q96GC9 | 0.998 ± 0.034 | 1.01 ± 0.045 | 1.008 ± 0.006 | 0.97552 ± 0.00086 | 0.962 ± 0.021 | 0.9707 ± 0.0025
12 | NARS2 (UniProt Q96I59) | 0.955 ± 0.032 | 0.904 ± 0.033 | 0.927 ± 0.036 | 1 ± 0.048 | 1 ± 0.011 | 0.963 ± 0.066
13 | LIN37 (UniProt Q96GY3) | 0.969 ± 0.029 | 1 ± 0.047 | 0.994 ± 0.034 | 1.012 ± 0.0094 | 1.02 ± 0.026 | 0.998 ± 0.041
14 | RAB39B (UniProt Q96DA2) | 1 ± 0.025 | 0.934 ± 0.066 | 0.996 ± 0.019 | 0.9868 ± 0.0097 | 0.986 ± 0.015 | 0.954 ± 0.041
15 | UniProt Q96NC0 | 1.04 ± 0.029 | 1.08 ± 0.13 | 1.08 ± 0.094 | 1.18 ± 0.1 | 1.15 ± 0.082 | 1.25 ± 0.1
16 | EDC3 (UniProt Q96F86) | 1.09 ± 0.025 | 1.03 ± 0.064 | 1.03 ± 0.05 | 1 ± 0.043 | 0.995 ± 0.043 | 0.999 ± 0.052

In another format: results already given.
Row,Target,NP40-soluble protein abundance (concentration: 1mM),NP40-soluble protein abundance (concentration: 2mM),NP40-soluble protein abundance (concentration: 4mM),NP40-soluble protein abundance (concentration: 6mM),NP40-soluble protein abundance (concentration: 8mM),NP40-soluble protein abundance (concentration: 10mM)
7,UniProt Q96FA3,0.9865 ± 0.0024,1 ± 0.014,0.978 ± 0.029,0.984 ± 0.017,0.992 ± 0.01,1.01 ± 0.049
15,UniProt Q96NC0,1.04 ± 0.029,1.08 ± 0.13,1.08 ± 0.094,1.18 ± 0.1,1.15 ± 0.082,1.25 ± 0.1
